Laboratory results published in PubChem BioAssay AID624297 (National Center for Advancing Translational Sciences (NCATS), 2012).
In all, about 340,000 compounds went through this assay and about 6,200 (1.8%) were called active. This list was built around the results that the source calls inconclusive (neither active nor inactive); the mix of calls is not that of the screen. Calls come from the whole dose curve; as a rule, active = well fitted activation curve with a large enough effect; inconclusive = small, poorly fitted or top-dose-only effect; inactive = no such curve, though single readings can be large or run the other way. Potencies beside an inconclusive call are fits to weak or partial responses and may not hold up.

assay: A quantitative high throughput screen for small molecules that induce DNA re-replication in SW480 colon adenocarcinoma cells.; note: nearly all actives have a fitted effect of over 55% in size; for re-replication activation: % of control where 0% means no effect; conditions: Hoechst DNA content imaging, 48 h; re-replication activation: at 46.1 µM (top of the series) unless noted
Summary of the method: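 Cells (250 per well) received 23 nL compound or DMSO by pin tool and were kept 48 hr at 37 C, 5% CO2. Nuclei were then stained with Hoechst for 40 min and scanned for DNA content.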
Potency is the fitted concentration of half-maximal effect.

Row | Compound | Potency | re-replication activation
1 | CC(C)NS(=O)(=O)c1ccc(Br)c(C(=O)OC(C)C(=O)NC2CCCCC2C)c1 (centres undefined) | inconclusive: 0.651 µM [activator, full curve] | 
2 | CC(=O)N1N=C(c2c(-c3ccccc3)c3cc(Br)ccc3[nH]c2=O)CC1c1ccco1 (centres undefined) | inconclusive: 29.1 µM [activator, partial curve, poor fit] | 
3 | Cc1[nH][nH]c(=O)c1C(c1ccc(-c2ccc(F)cc2)o1)c1c(C)[nH][nH]c1=O |  | inactive: -7.92%
4 | Cn1c(=O)c([N+](=O)[O-])c(NCc2ccccc2Cl)c2ccccc21 |  | inactive: -5%
5 | COc1ccc(S(=O)(=O)N(CCc2ccccc2)CC(=O)N/N=C/c2ccc3c(c2)OCO3)cc1 | inconclusive: 0.651 µM [activator, partial curve, poor fit] | 
6 | COC(CN(C(=O)CCl)C(C(=O)NC1CCCCC1)c1ccc(C)cc1)OC (centres undefined) | active: 5.8 µM | 
7 | COc1ccc(-c2nnc(SCC(=O)N(C)C3CCS(=O)(=O)C3)n2N)cc1OC (centres undefined) | inconclusive: 5.8 µM [activator, partial curve, poor fit] | 
8 | Cc1ccc(-c2nc(C(=O)NCCCN3CCOCC3)cc3c2[nH]c2ccccc23)cc1 | inconclusive: 23.1 µM [activator, single point] | 
9 | C[C@H](CO)N1C[C@H](C)[C@@H](CN(C)S(=O)(=O)c2cn(C)cn2)Oc2ccc(NC(=O)Nc3ccc4c(c3)OCO4)cc2C1=O | inconclusive: 6.51 µM [activator, single point] | 
10 | CCCCC(CC)C(=O)Nc1cc(C(=O)NCCC)ccc1N1CCC2(CC1)CC(c1cccc(Br)c1)=NO2 (centres undefined) | inconclusive: 3.26 µM [activator, single point] | 
11 | N#Cc1ccc(-c2ccc(OCC(O)CN3CCCCC3)cc2)cc1 (centres undefined) | inconclusive: 29.1 µM [activator, single point] | 
12 | Cc1noc(C)c1S(=O)(=O)N1CCCCC1 | inconclusive: 23.1 µM [activator, single point] | 
13 | COc1ccc(S(=O)(=O)N2CCOC2CNC(=O)C(=O)NCc2ccco2)cc1C (centres undefined) | inconclusive: 16.4 µM [activator, single point] | 
14 | COc1cccc(/C=N/NC(=O)C(=O)N2CCCCCC2)c1O | inconclusive: 29.1 µM [activator, single point] | 
15 | CCCC(=O)NC(c1ccccc1)c1ccc2cccnc2c1O (centres undefined) | inconclusive: 0.731 µM [activator, full curve, poor fit] | 
16 | O=S(=O)(Nc1ccc(-c2csc(-c3ccccc3)n2)cc1)c1ccccc1 |  | inactive: -2.35%
17 | N#CCCN(C(=O)Nc1ccccc1)c1ccccc1 |  | inactive: -5.19%
18 | COc1ccccc1C(=O)NC1CCCCCCC1 |  | inactive: -0.746%
19 | Cc1ccsc1/C=N/NC(=O)c1ccc2ccccc2c1 | inconclusive: 32.6 µM [activator, single point] | 
20 | CSc1ccccc1NC(=S)N/N=C/c1cccn1Cc1cccc(C)c1 | inconclusive: 16.4 µM [activator, single point] | 
21 | COc1ccc(C(CNC(=O)c2ccc(S(=O)(=O)N3CC(C)CC(C)C3)cc2)N(C)C)cc1 (centres undefined) | inconclusive: 25.9 µM [activator, single point] | 
22 | CC(C)=N/N=C1/NC(=O)C(Cc2ccccc2)S1 (centres undefined) | inconclusive: 14.6 µM [activator, partial curve, poor fit] | 

Row | Compound | Potency | re-replication activation
23 | COc1cccc(CN(C)S(=O)(=O)c2cccs2)c1 |  | inactive: -7.35%
24 | COc1cccc(/C=N/n2c(-c3ccco3)nc3ccccc3c2=O)c1 | inconclusive: 6.51 µM [activator, single point] | 
25 | O=C(CS(=O)(=O)Cc1ccccc1)Nc1ccc(S(=O)(=O)N2CCCCCC2)cc1 |  | inactive: -8.16%
26 | CCN(CC)S(=O)(=O)c1ccc(NC(=O)c2ccc(CN3CCOCC3)cc2)cc1 |  | inactive: 0.981%
27 | NC(N)=N/N=C/c1cccc(Cl)c1Cl | inconclusive: 29.1 µM [activator, single point] | 
28 | COCCNC(=O)c1ccc(C)c(NC(=O)C2=C(C)OCCS2)c1 |  | inactive: -9.03%
29 | S=C(NCCN1CCCCC1)Nc1ccc(Br)cc1 | active: 16.4 µM | 
30 | CCOc1ccc2c(c1)ncn2Cc1ccccc1 |  | inactive: -1.84%
31 | CCC(C)C(NC(=O)C(N)CC(C)C)C(=O)NC(CCC(=O)OCc1ccccc1)C(N)=O (centres undefined) | inconclusive: 25.9 µM [activator, partial curve, poor fit] | 
32 | C=CCNC(=O)c1ccc(-c2cccc([N+](=O)[O-])c2)o1 | inconclusive: 29.1 µM [activator, single point] | 
33 | Cc1ccc(S(=O)(=O)N2CCOCC2)cc1NC(=O)COC(=O)Cn1c(C)csc1=O |  | inactive: 2.21%
34 | COC(=O)c1ccc(NC(=O)c2ccc(NS(=O)(=O)c3cccc4cccnc34)cc2)cc1 | inconclusive: 29.1 µM [activator, single point] | 
35 | CC(C)(C)C(=O)OCc1nc(-c2ccc3c(c2)OCCO3)cs1 |  | inactive: 4%
36 | CC1(C)OC2OC(C(=O)N/N=C/c3cc(Br)ccc3O)C3OC(C)(C)OC3C2O1 (centres undefined) | active: 16.4 µM | 
37 | Cc1cccc(-c2ccc3c(c2)C2CC3CCN2Cc2ccc3c(c2)OCO3)c1 (centres undefined) | inconclusive: 1.3 µM [activator, partial curve, poor fit] | 
38 | CC(=O)/C(=C/N(C)C)C(=O)Nc1ccc(Cl)cc1Cl | inconclusive: 18.4 µM [activator, single point] | 
39 | Fc1ccc(-c2nnc(CSc3nnc4ccccn34)o2)cc1 | inconclusive: 0.0103 µM [activator, full curve, poor fit] | 
40 | O=C(C1CCC1)N1CCc2cc(S(=O)(=O)NCCN3CCN(c4ccccc4F)CC3)ccc21 |  | inactive: 29.1%
41 | Cc1[nH]c(-c2ccc(F)cc2)cc1C(=O)N1CCN(c2ccc(Cl)cc2)CC1 |  | inactive: -2.23%
42 | COCCn1c(Cc2ccccc2)nnc1SCC(=O)Nc1ccccc1 | inconclusive: 0.146 µM [activator, full curve, poor fit] | 
43 | C/C(=N\Nc1nccnc1Cl)c1ccc(O)cc1 | inconclusive: 11.6 µM [activator, single point] | 
44 | CCOCCCn1c(=NC(C)=O)c(C(=O)OCC)cc2c(=O)n3ccccc3nc21 | inconclusive: 31.6 µM [activator, single point] | 

Given with tabs: 13 of the compounds above
Row	Compound	Potency	re-replication activation
1	CC(C)NS(=O)(=O)c1ccc(Br)c(C(=O)OC(C)C(=O)NC2CCCCC2C)c1 (centres undefined)	inconclusive: 0.651 µM [activator, full curve]	
2	CC(=O)N1N=C(c2c(-c3ccccc3)c3cc(Br)ccc3[nH]c2=O)CC1c1ccco1 (centres undefined)	inconclusive: 29.1 µM [activator, partial curve, poor fit]	
3	Cc1[nH][nH]c(=O)c1C(c1ccc(-c2ccc(F)cc2)o1)c1c(C)[nH][nH]c1=O		inactive: -7.92%
4	Cn1c(=O)c([N+](=O)[O-])c(NCc2ccccc2Cl)c2ccccc21		inactive: -5%
5	COc1ccc(S(=O)(=O)N(CCc2ccccc2)CC(=O)N/N=C/c2ccc3c(c2)OCO3)cc1	inconclusive: 0.651 µM [activator, partial curve, poor fit]	
6	COC(CN(C(=O)CCl)C(C(=O)NC1CCCCC1)c1ccc(C)cc1)OC (centres undefined)	active: 5.8 µM	
7	COc1ccc(-c2nnc(SCC(=O)N(C)C3CCS(=O)(=O)C3)n2N)cc1OC (centres undefined)	inconclusive: 5.8 µM [activator, partial curve, poor fit]	
8	Cc1ccc(-c2nc(C(=O)NCCCN3CCOCC3)cc3c2[nH]c2ccccc23)cc1	inconclusive: 23.1 µM [activator, single point]	
9	C[C@H](CO)N1C[C@H](C)[C@@H](CN(C)S(=O)(=O)c2cn(C)cn2)Oc2ccc(NC(=O)Nc3ccc4c(c3)OCO4)cc2C1=O	inconclusive: 6.51 µM [activator, single point]	
10	CCCCC(CC)C(=O)Nc1cc(C(=O)NCCC)ccc1N1CCC2(CC1)CC(c1cccc(Br)c1)=NO2 (centres undefined)	inconclusive: 3.26 µM [activator, single point]	
11	N#Cc1ccc(-c2ccc(OCC(O)CN3CCCCC3)cc2)cc1 (centres undefined)	inconclusive: 29.1 µM [activator, single point]	
12	Cc1noc(C)c1S(=O)(=O)N1CCCCC1	inconclusive: 23.1 µM [activator, single point]	
13	COc1ccc(S(=O)(=O)N2CCOC2CNC(=O)C(=O)NCc2ccco2)cc1C (centres undefined)	inconclusive: 16.4 µM [activator, single point]	
